Results: paper doi:10.1101/2020.04.03.023861
Read-outs that look alike come from different tables or passages of the source. No constants are given. Whether binding was seen depends on the method and setting. For some assays here: Binding seen in cells or lysates may run through a third protein. Some binding calls cover weakened binding; strength is not graded here. For some assays here: Tags and fused reporters may be left off the sequences shown.

Amino acid sequences for entries named in this document (tags omitted). Residues count along the entry.
UniProt P05496, residues 62-136: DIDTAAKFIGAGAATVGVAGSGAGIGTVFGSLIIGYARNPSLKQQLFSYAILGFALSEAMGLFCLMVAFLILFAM

Experiments:
TMEM70-FLAG (human) [1] = molecular target: T1, TMEM70-FLAG (human) (UniProt Q9BUB7); test: native gel or EMSA
T1 sequence: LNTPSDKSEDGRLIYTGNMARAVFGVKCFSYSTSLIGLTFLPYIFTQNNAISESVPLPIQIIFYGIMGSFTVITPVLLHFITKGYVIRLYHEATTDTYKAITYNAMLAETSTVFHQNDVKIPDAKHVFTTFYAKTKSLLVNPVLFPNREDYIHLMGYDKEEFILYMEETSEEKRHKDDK

[2] = molecular target: T2, TMEM70 (untagged, exogenous) (human) (UniProt Q9BUB7); test: native gel or EMSA
T2 sequence: T1 sequence

[3] = molecular target: T3, TMEM70 (endogenous) (human (endogenous in HEK293T and 143B)) (UniProt Q9BUB7); test: native gel or EMSA
T3 sequence: T1 sequence

[4] = molecular target: T3, TMEM70 (endogenous) (human (endogenous in HEK293T and 143B)); test: native gel or EMSA; remark: listed apart in the source
TMEM70-FLAG (human) [5] = molecular target: T1, TMEM70-FLAG (human); test: co-IP
TMEM70-FLAG (human) [6] = molecular target: T1, TMEM70-FLAG (human); test: co-IP; remark: listed apart in the source
TMEM70-FLAG (human) [7] = molecular target: T1, TMEM70-FLAG (human); test: co-IP + native gel or EMSA
[8] = molecular target: T3, TMEM70 (endogenous) (human (endogenous in HEK293T and 143B)); test: native gel or EMSA; remark: listed apart in the source

Measured: binding

subunit c of the ATP synthase (from UniProt P05496 62-136)
binds: TMEM70-FLAG (human) [1] | [2] | [3] | [4] | TMEM70-FLAG (human) [5] | TMEM70-FLAG (human) [6] | TMEM70-FLAG (human) [7] | [8]
